Measurements as given in article PMC7819943, “Rice protein-binding microarrays: a tool to detect cis-acting elements near promoter regions in rice”.
This is one part of the list.

Target: T1, OsSMF1 (Oryza sativa, UniProt Q6ZLB0 1-436)
T1 sequence: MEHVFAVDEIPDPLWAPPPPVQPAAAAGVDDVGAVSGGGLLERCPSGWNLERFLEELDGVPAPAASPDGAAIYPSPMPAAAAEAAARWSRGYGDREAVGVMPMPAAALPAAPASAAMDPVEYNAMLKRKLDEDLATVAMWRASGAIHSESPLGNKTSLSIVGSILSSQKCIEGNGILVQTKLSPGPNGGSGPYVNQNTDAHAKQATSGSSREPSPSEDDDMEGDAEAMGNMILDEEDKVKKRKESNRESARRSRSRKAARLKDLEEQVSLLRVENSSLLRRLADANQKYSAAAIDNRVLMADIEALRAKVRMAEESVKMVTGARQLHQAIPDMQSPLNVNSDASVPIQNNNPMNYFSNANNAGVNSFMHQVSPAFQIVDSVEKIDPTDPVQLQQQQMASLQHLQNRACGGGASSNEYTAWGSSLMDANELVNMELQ
Experiment: protein-binding microarray (RPBM); PBS, 2% BSA, 51.3 ng/ul salmon testes DNA, 50 uM zinc acetate, 200 nM TF, 25 C, 1 h; high values mean tight binding
Conditions: protein: recombinant; tags: N-terminal polyhistidine and DsRed monomer fusion (pET32a); chain copies: 2; label: CyDye5-dUTP incorporated in the synthesized complementary strand; 3' TTTTT single-stranded linker to array surface; dsDNA, one strand shown
How it was run: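 Transcription factors were each fused at the N-terminus to a polyhistidine tag plus DsRed and expressed in E. coli BL21-CodonPlus before Ni–NTA purification. Binding to a double-stranded custom Agilent array was carried out with 200 nM protein at 25 °C for 1 h in PBS, 2% BSA, salmon testes DNA and 50 µM zinc acetate. The binding signal is per-feature fluorescence intensity, in arbitrary units, on an Axon 4000B scanner.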

Sequence	binding signal
AGACACCAACAAGGTTGGCAGCAAACCAGAACAAATTAACCGGAGTCACCTAGTGCAG	24700 fluorescence intensity (a.u.)
AGCGTGTCCTCCTGGTTGCTATTGACACGCTGGCAGAGCCCGGAGTCACCTAGTGCAG	7800 fluorescence intensity (a.u.)
AAATTCATGCACTTGCCACGTGCAATCCCAACTATACTGTCGGAGTCACCTAGTGCAG	4230 fluorescence intensity (a.u.)
GTTGCATGAAGACCCATTCCTTGGTGACGTGATGTTAGCACGGAGTCACCTAGTGCAG	3830 fluorescence intensity (a.u.)
CTACTGTCATGCTTCCTTGTCACATTACTACATCGTCGTTCGGAGTCACCTAGTGCAG	3970 fluorescence intensity (a.u.)
GTCCTCTACAGTACTGTCTTCTGACTTAGTGCTTTGAGTGCGGAGTCACCTAGTGCAG	3680 fluorescence intensity (a.u.)
ACAATCTCTTCAATTATATATGTGACATCATACTTTCTATCGGAGTCACCTAGTGCAG	4030 fluorescence intensity (a.u.)
AGGGGAAAGATATGTGTACGTGTATTCATAGGGGTGAGTGCGGAGTCACCTAGTGCAG	5720 fluorescence intensity (a.u.)
GGTCAGTGACTCGCGCGAACGTGGGGTTGACGCGACGTGGCGGAGTCACCTAGTGCAG	6800 fluorescence intensity (a.u.)
GCAATTCGCTCGGCAGGATTTCAACATTGCGGCCTACTGCCGGAGTCACCTAGTGCAG	27800 fluorescence intensity (a.u.)
ACGGCCACCCGCATCAACTCTTCCACTCTCTCCATTCCTACGGAGTCACCTAGTGCAG	3710 fluorescence intensity (a.u.)
CCTCTTCTGATGTGGTCACATTCTCGCGTGCTCATTTGCACGGAGTCACCTAGTGCAG	5460 fluorescence intensity (a.u.)
AATTGCTTTGTTAAACTGTACAGGTATGCTGCTGTATTTGCGGAGTCACCTAGTGCAG	3420 fluorescence intensity (a.u.)
CCCACCTCTTGCTATCCACGTCGAACGCAGGATGTGGCGGCGGAGTCACCTAGTGCAG	23900 fluorescence intensity (a.u.)
CTGTTCATTCACATGGAGACGCACACGTGCTGTGACTTGGCGGAGTCACCTAGTGCAG	3300 fluorescence intensity (a.u.)
GAGCGTGTAATACGTGTCTTACCCACAACGCCTCTCTTCACGGAGTCACCTAGTGCAG	7900 fluorescence intensity (a.u.)
ATGTAGATTCTATCTCGATTTTCACTATTACGTTTCGAAACGGAGTCACCTAGTGCAG	23700 fluorescence intensity (a.u.)
CATTCTACAACCAGGAGTCCACGTCCTTCCACACCTTTTCCGGAGTCACCTAGTGCAG	6270 fluorescence intensity (a.u.)
CACCACACCAGCTCACACACGCTGTGCTGCTGCTGCTGCCCGGAGTCACCTAGTGCAG	3620 fluorescence intensity (a.u.)
CTCTCCTCTCCTCCTCCTGCTGCCGTCCACGCGACACCACCGGAGTCACCTAGTGCAG	3320 fluorescence intensity (a.u.)
GTATCAGTGACTAGACCATAAACTTGCTCTTACCAAGGTGCGGAGTCACCTAGTGCAG	3600 fluorescence intensity (a.u.)

Quoted from above (9 entries):
Sequence	binding signal
ACAATCTCTTCAATTATATATGTGACATCATACTTTCTATCGGAGTCACCTAGTGCAG	4030 fluorescence intensity (a.u.)
AGGGGAAAGATATGTGTACGTGTATTCATAGGGGTGAGTGCGGAGTCACCTAGTGCAG	5720 fluorescence intensity (a.u.)
GGTCAGTGACTCGCGCGAACGTGGGGTTGACGCGACGTGGCGGAGTCACCTAGTGCAG	6800 fluorescence intensity (a.u.)
GCAATTCGCTCGGCAGGATTTCAACATTGCGGCCTACTGCCGGAGTCACCTAGTGCAG	27800 fluorescence intensity (a.u.)
ACGGCCACCCGCATCAACTCTTCCACTCTCTCCATTCCTACGGAGTCACCTAGTGCAG	3710 fluorescence intensity (a.u.)
CCTCTTCTGATGTGGTCACATTCTCGCGTGCTCATTTGCACGGAGTCACCTAGTGCAG	5460 fluorescence intensity (a.u.)
AATTGCTTTGTTAAACTGTACAGGTATGCTGCTGTATTTGCGGAGTCACCTAGTGCAG	3420 fluorescence intensity (a.u.)
CCCACCTCTTGCTATCCACGTCGAACGCAGGATGTGGCGGCGGAGTCACCTAGTGCAG	23900 fluorescence intensity (a.u.)
CTGTTCATTCACATGGAGACGCACACGTGCTGTGACTTGGCGGAGTCACCTAGTGCAG	3300 fluorescence intensity (a.u.)

More records.

Sequence	binding signal
ACCCGAGAGATGAACTTCGATGACCTGTGGTATGTGGACCCGGAGTCACCTAGTGCAG	4770 fluorescence intensity (a.u.)
CCGCTCCCACACCGGCGCCACCGCCGCCGGCTCCTGCGCCCGGAGTCACCTAGTGCAG	24500 fluorescence intensity (a.u.)
TGGCCGGAATCACACGCACAAGGTGCTGCGTCACCTATAACGGAGTCACCTAGTGCAG	9040 fluorescence intensity (a.u.)
ATTGAGGACGATGTGACCGCAACGTGGAGTAGATAGAGTTCGGAGTCACCTAGTGCAG	3740 fluorescence intensity (a.u.)
CTCGAGAGTTATTTATTATTTATATTTCCAAAGGTTTGACCGGAGTCACCTAGTGCAG	25900 fluorescence intensity (a.u.)
GAGGAATTGAAGGCATCATCACAGCTGACACAGCCATTTGCGGAGTCACCTAGTGCAG	5170 fluorescence intensity (a.u.)
ATCCGGATGCTGCGGAGTAATCACCTACTTAGAGCAGTACCGGAGTCACCTAGTGCAG	4580 fluorescence intensity (a.u.)
TGACTAATTCATCACTCACCATCATCATTATCCCTTTAATCGGAGTCACCTAGTGCAG	21800 fluorescence intensity (a.u.)
TATACTATTTCTTTCTTTTCCACCGTTGACGTTTTAGAACCGGAGTCACCTAGTGCAG	16200 fluorescence intensity (a.u.)
ACACCTCGCGACGACGACACACATGACACATATCCGTCCACGGAGTCACCTAGTGCAG	4330 fluorescence intensity (a.u.)
ACAAACCATCGTATACACGACGACTCCACCTATCTCGGCACGGAGTCACCTAGTGCAG	3200 fluorescence intensity (a.u.)
ATGAAAATACTTTAAAAGTTAAGTCACACATAAAGTACTGCGGAGTCACCTAGTGCAG	3930 fluorescence intensity (a.u.)
ACGTGCTCAGTCATCATCCTCATGGCCGTTCCTTGCCGAACGGAGTCACCTAGTGCAG	6930 fluorescence intensity (a.u.)
GGCCCACGCCGGCAGATCAGGTGGGGAGAGAAGCTCCGCCCGGAGTCACCTAGTGCAG	14700 fluorescence intensity (a.u.)
TATCCCTAGATCGACGCTTCCAACTGTGACCAAGCAGATGCGGAGTCACCTAGTGCAG	3360 fluorescence intensity (a.u.)
TGAGAATGCATTTCATATCTAACACATATCTTTATAGTAACGGAGTCACCTAGTGCAG	7310 fluorescence intensity (a.u.)
CTCGACCGGTGGGGCGTCTCCGAAACCCTCCATCTCGACACGGAGTCACCTAGTGCAG	36200 fluorescence intensity (a.u.)
CTGAGCAGCAGCAGCTTCGCCAGCTCGCGATCCCCTGCAACGGAGTCACCTAGTGCAG	3560 fluorescence intensity (a.u.)
TCGCCGCCGGAGCCGTGCTCGCTCGGGTGGACCTTCGGCACGGAGTCACCTAGTGCAG	27400 fluorescence intensity (a.u.)
CATGAGATGATTGAACTGGGACATGTTAGTCAAGGTTTTCCGGAGTCACCTAGTGCAG	3340 fluorescence intensity (a.u.)
CAGAGTGTGAGAATCTACCCACAACAACATCTGGATCATCCGGAGTCACCTAGTGCAG	3140 fluorescence intensity (a.u.)
